No constants are given. Whether binding was seen depends on the method and setting. Binding seen in cells or lysates may run through a third protein. A yes stands for co-enrichment or nearness to the bait. Other partners may have been found.
B1: gelatin peptide 13, α2.931–941, … (peptide)
peptide: GPAGPSGPAGK
B2: gelatin peptide α1.91–99, … (peptide)
peptide: GFSGLDGAK
B3: gelatin peptide 4, α1.889–906, … (peptide)
peptide: GETGPAGPAGPIGPVGAR

target: human fibronectin (human); assay: affinity purification with mass spectrometry; human FN coupled to Sepharose 4FF; tryptic digest of bovine gelatin loaded in 20 mM PBS pH 7.4, washed, eluted with 3 M urea (sample 1), or undigested gelatin bound, eluted and then digested with trypsin (sample 2); peptides identified by HPLC-MS/MS against bovine type I collagen; only the target purified

| Binder | binding |
| --- | --- |
| B1 | binds |
| B2 | binds |
| B3 | binds |

Source: publication PMC9506415
